Laboratory results as given in paper PMC3176765, “Mechanism of the Interaction between the Intrinsically Disordered C-Terminus of the Pro-Apoptotic ARTS Protein and the Bir3 Domain of XIAP” (PLoS ONE, 2011).
No constants are given. Whether binding was seen depends on the method and setting.

Protein sequences, listed by entry. Tags and fused reporters are not part of them. Residues count along the entry.
UniProt P98170, residues 252-350: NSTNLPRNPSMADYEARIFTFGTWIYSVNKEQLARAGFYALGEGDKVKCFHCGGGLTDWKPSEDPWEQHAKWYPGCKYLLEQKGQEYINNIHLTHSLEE

T1: fl-ARTS 248-274 (human)
T1 sequence (peptide, 5' and 6' carboxyfluorescein on the N-terminus): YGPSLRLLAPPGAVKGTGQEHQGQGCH

T2: fl-ARTS 257-265 (human)
T2 sequence (peptide, 5' and 6' carboxyfluorescein on the N-terminus): PPGAVKGTG

T3: fl-ARTS 266-274 H268A (human)
T3 sequence (peptide, 5' and 6' carboxyfluorescein on the N-terminus): QEAQGQGCH

T4: fl-ARTS 266-274 C273A (human)
T4 sequence (peptide, 5' and 6' carboxyfluorescein on the N-terminus): QEHQGQGAH

T5: fl-ARTS 248-256 (human)
T5 sequence (peptide, 5' and 6' carboxyfluorescein on the N-terminus): YGPSLRLLA


Assays:
fl-ARTS 248-274 (human) = target: T1, fl-ARTS 248-274 (human); experiment: fluorescence polarisation; Bir3 titrated into fl-ARTS CTD in the presence of 2 mM DTT; 20 mM Hepes pH 7.4, 45 mM NaCl, 10°C; both purified
fl-ARTS 257-265 (human) = target: T2, fl-ARTS 257-265 (human); experiment: condition: Bir3 150 µM stock, 200 µl titrated into 1 ml of peptide; fluorescence polarisation; non-labeled Bir3 (200 µl, 150 µM) titrated in 5 µl additions into 1 ml of fluorescein-labeled peptide; 20 mM Hepes pH 7.4, 45 mM NaCl, 10°C; fit to 1:1 binding model; both purified
[1] = target: T3, fl-ARTS 266-274 H268A (human); experiment: as above
[2] = target: T4, fl-ARTS 266-274 C273A (human); experiment: as above
fl-ARTS 248-256 (human) = target: T5, fl-ARTS 248-256 (human); experiment: as above
[3] = target: ARTS CTD 248-274 (not labelled) (human); experiment: SEC; analytical gel filtration of ARTS CTD 248-274 in the presence of 2 mM DTT; 20 mM Hepes pH 7.4, 50 mM NaCl, 4°C; peak identified by mass spectrometry; both purified

binding (fl-ARTS 248-274 (human))	binding (fl-ARTS 257-265 (human))	binding [1]	binding [2]	binding (fl-ARTS 248-256 (human))	binding [3]	Molecule
no binding (condition: with 2 mM DTT)	no binding	no binding	no binding	no binding		Bir3 domain of XIAP (residues 252-350) with a C-terminal His tag (from UniProt P98170 252-350) (domain or fragment)
					no binding (condition: with 2 mM DTT)	YGPSLRLLAPPGAVKGTGQEHQGQGCH (numbers count on: ARTS/Sept4_i2 (GenBank AAG45673.1); also called ARTS C-terminal domain; source: synthetic peptide) [ARTS CTD 248-274 (not labelled)]
